Source: PubChem BioAssay AID1508597 (Cure First, 2020)
Screen: 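Genes whose silencing sensitises or protects ovarian cancer cells against rucaparib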 (primary screen). System: human ovarian carcinoma lines grown from tumours: OCI-P5x (papillary serous) and OCI-C5x (clear cell). Reagents: siRNA pool against human genes, 1.25 pmol siRNA per well. Duration: 72 h or 96 h, depending on the cell culture. Treatment: rucaparib 20 µM (about IC30) or vehicle, present until read-out. Rucaparib or vehicle: Rucaparib. Cell line: OCI-P5x (serous). Detection: 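Luminescent ATP-based viability assay read 72 or 96 h after transfection, depending on culture, given as normalised percent viability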. Scale: viability, normalised: higher = more viable cells remaining. Call rule: 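a well counts as a hit if its normalised viability is under 80 percent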. Meaning of the calls: active = viability under 80%; inactive = viability 80% or more.
This is an unselected part of the about 2,100 reagents, in one setting of the screen. 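Calls flag viability under 80% in either arm, not effects specific to rucaparib; the reference for percent is not stated.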 The record does not give: the 100% reference.

| gene knocked down | technical replicate | viability, normalised (%) | Outcome |
| --- | --- | --- | --- |
| LATS2 (large tumor suppressor kinase 2) | 1 | 108 | inactive |
| LATS2 (large tumor suppressor kinase 2) | 2 | 110 | inactive |
| LATS2 (large tumor suppressor kinase 2) | 3 | 110 | inactive |
| EPHA5 (EPH receptor A5) | 1 | 120 | inactive |
| EPHA5 (EPH receptor A5) | 2 | 119 | inactive |
| EPHA5 (EPH receptor A5) | 3 | 111 | inactive |
| TET2 (tet methylcytosine dioxygenase 2) | 1 | 44.3 | active |
| TET2 (tet methylcytosine dioxygenase 2) | 2 | 63.9 | active |
| TET2 (tet methylcytosine dioxygenase 2) | 3 | 58.1 | active |
| PI4K2A (phosphatidylinositol 4-kinase type 2 alpha) | 1 | 81.7 | inactive |
| PI4K2A (phosphatidylinositol 4-kinase type 2 alpha) | 2 | 103 | inactive |
| PI4K2A (phosphatidylinositol 4-kinase type 2 alpha) | 3 | 65.5 | active |
| DCLK1 (doublecortin like kinase 1) | 1 | 89.5 | inactive |
| DCLK1 (doublecortin like kinase 1) | 2 | 105 | inactive |
| DCLK1 (doublecortin like kinase 1) | 3 | 111 | inactive |
| OGG1 (8-oxoguanine DNA glycosylase) | 1 | 97.6 | inactive |
| OGG1 (8-oxoguanine DNA glycosylase) | 2 | 85.6 | inactive |
| OGG1 (8-oxoguanine DNA glycosylase) | 3 | 68.9 | active |
| PNKP (polynucleotide kinase 3'-phosphatase) | 1 | 75.7 | active |
| PNKP (polynucleotide kinase 3'-phosphatase) | 2 | 80.7 | inactive |
| PNKP (polynucleotide kinase 3'-phosphatase) | 3 | 66.4 | active |
| PIP5K1C (phosphatidylinositol-4-phosphate 5-kinase type 1 gamma) | 1 | 55.5 | active |
| PIP5K1C (phosphatidylinositol-4-phosphate 5-kinase type 1 gamma) | 2 | 79.2 | active |
| PIP5K1C (phosphatidylinositol-4-phosphate 5-kinase type 1 gamma) | 3 | 44.7 | active |
| HMGN5 (high mobility group nucleosome binding domain 5) | 1 | 60.2 | active |
| HMGN5 (high mobility group nucleosome binding domain 5) | 2 | 48.9 | active |
| HMGN5 (high mobility group nucleosome binding domain 5) | 3 | 69.8 | active |
| INSR (insulin receptor) | 1 | 105 | inactive |
| INSR (insulin receptor) | 2 | 102 | inactive |
| INSR (insulin receptor) | 3 | 107 | inactive |
| GNPAT (glyceronephosphate O-acyltransferase) | 1 | 56.4 | active |
| GNPAT (glyceronephosphate O-acyltransferase) | 2 | 41.9 | active |
| GNPAT (glyceronephosphate O-acyltransferase) | 3 | 69.4 | active |
| TAF7 (TATA-box binding protein associated factor 7) | 1 | 48 | active |
| TAF7 (TATA-box binding protein associated factor 7) | 2 | 40.1 | active |
| TAF7 (TATA-box binding protein associated factor 7) | 3 | 53.9 | active |

The list goes on, starting with the last 6 of the part before.
| gene knocked down | technical replicate | viability, normalised (%) | Outcome |
| --- | --- | --- | --- |
| GNPAT (glyceronephosphate O-acyltransferase) | 1 | 56.4 | active |
| GNPAT (glyceronephosphate O-acyltransferase) | 2 | 41.9 | active |
| GNPAT (glyceronephosphate O-acyltransferase) | 3 | 69.4 | active |
| TAF7 (TATA-box binding protein associated factor 7) | 1 | 48 | active |
| TAF7 (TATA-box binding protein associated factor 7) | 2 | 40.1 | active |
| TAF7 (TATA-box binding protein associated factor 7) | 3 | 53.9 | active |
| HDAC4 (histone deacetylase 4) | 1 | 81.5 | inactive |
| HDAC4 (histone deacetylase 4) | 2 | 66.1 | active |
| HDAC4 (histone deacetylase 4) | 3 | 84.1 | inactive |
| CPS1 (carbamoyl-phosphate synthase 1) | 1 | 64.7 | active |
| CPS1 (carbamoyl-phosphate synthase 1) | 2 | 39.1 | active |
| CPS1 (carbamoyl-phosphate synthase 1) | 3 | 70.4 | active |
| HUS1 (HUS1 checkpoint clamp component) | 1 | 88.4 | inactive |
| HUS1 (HUS1 checkpoint clamp component) | 2 | 93.1 | inactive |
| HUS1 (HUS1 checkpoint clamp component) | 3 | 74 | active |
| GCK (glucokinase) | 1 | 105 | inactive |
| GCK (glucokinase) | 2 | 99.3 | inactive |
| GCK (glucokinase) | 3 | 102 | inactive |
| MCM2 (minichromosome maintenance complex component 2) | 1 | 59.4 | active |
| MCM2 (minichromosome maintenance complex component 2) | 2 | 44.4 | active |
| MCM2 (minichromosome maintenance complex component 2) | 3 | 47.2 | active |
| PIK3CD | 1 | 63.1 | active |
| PIK3CD | 2 | 51.9 | active |
| PIK3CD | 3 | 56.5 | active |
| TLR4 (toll like receptor 4) | 1 | 60.4 | active |
| TLR4 (toll like receptor 4) | 2 | 62.1 | active |
| TLR4 (toll like receptor 4) | 3 | 48 | active |
